Data: patent US9242015B2, “Development and screening of contrast agents for in vivo imaging of Parkinson's disease” (The General Hospital Corporation, priority 2010, dated 2016)
At least one structure is not confirmed: it was looked up by name or label, or the drawing left a doubt.

Legend:
SynT-Syn1 Cell Model = experiment: SynT-Syn1 cell model staining; type: cell-based
Venus-YFPSyn Cell Model = experiment: Venus-YFPSyn cell model staining; type: cell-based
Syn-GFP Mice = experiment: Syn-GFP mouse model staining

CCN1C(=CC=CC=Cc2sc3ccccc3[n+]2CC)Sc2ccccc21.[I-] [3-3′-DTDCI, 3,3′-diethylthiadicarbocyanine iodide]
SynT-Syn1 Cell Model (SynT-Syn1 Cell Model): + | Venus-YFPSyn Cell Model (Venus-YFPSyn Cell Model): + | Syn-GFP Mice (Syn-GFP Mice): −
